# The supplement of paper PMC10849652
# The chains behind the UniProt entries cited, without tags or fusion partners. Where a name states a change or a piece, a line headed by the entry shows the natural chain unless it says otherwise.
# UniProt P62136, whole entry, looked up: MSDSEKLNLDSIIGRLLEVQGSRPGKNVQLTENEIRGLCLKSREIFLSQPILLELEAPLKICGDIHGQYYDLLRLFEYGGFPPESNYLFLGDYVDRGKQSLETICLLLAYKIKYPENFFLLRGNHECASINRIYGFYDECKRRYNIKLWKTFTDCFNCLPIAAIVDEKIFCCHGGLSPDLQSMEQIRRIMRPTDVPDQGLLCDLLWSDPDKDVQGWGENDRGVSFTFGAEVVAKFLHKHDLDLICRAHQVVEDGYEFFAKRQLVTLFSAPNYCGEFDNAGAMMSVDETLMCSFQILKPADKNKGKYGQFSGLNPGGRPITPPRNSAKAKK
# UniProt Q96C90: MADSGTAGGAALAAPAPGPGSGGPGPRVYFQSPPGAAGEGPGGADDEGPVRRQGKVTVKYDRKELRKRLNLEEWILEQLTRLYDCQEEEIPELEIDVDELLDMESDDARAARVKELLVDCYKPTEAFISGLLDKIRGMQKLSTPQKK
# UniProt P54619: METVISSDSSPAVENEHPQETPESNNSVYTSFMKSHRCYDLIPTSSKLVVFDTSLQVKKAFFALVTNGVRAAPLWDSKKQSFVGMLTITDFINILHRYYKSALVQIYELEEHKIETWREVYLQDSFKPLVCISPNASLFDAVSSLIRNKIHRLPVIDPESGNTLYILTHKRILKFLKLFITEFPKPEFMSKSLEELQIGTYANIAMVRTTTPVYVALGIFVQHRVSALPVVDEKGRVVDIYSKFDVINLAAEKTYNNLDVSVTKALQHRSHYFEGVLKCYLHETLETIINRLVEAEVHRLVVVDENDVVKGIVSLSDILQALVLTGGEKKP
# UniProt Q04759: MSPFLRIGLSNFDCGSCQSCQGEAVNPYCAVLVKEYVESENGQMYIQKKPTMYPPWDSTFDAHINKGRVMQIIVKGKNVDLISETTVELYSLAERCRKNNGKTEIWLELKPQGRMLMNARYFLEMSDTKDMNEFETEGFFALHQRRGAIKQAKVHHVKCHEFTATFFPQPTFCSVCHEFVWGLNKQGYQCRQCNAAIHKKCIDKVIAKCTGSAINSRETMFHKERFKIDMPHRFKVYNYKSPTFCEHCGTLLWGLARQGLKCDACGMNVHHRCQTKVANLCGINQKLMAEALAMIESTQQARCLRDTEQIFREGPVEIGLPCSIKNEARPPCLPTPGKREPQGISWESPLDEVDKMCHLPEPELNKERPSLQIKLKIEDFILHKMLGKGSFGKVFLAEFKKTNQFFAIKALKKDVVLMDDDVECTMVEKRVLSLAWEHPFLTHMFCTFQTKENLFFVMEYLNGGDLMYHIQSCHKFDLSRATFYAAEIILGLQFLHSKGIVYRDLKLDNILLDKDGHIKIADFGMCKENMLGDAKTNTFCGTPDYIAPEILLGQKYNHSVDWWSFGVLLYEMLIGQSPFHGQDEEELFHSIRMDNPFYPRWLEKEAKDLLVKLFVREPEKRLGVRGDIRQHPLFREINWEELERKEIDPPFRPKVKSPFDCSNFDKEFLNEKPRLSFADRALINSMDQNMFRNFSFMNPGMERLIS
# UniProt O15355: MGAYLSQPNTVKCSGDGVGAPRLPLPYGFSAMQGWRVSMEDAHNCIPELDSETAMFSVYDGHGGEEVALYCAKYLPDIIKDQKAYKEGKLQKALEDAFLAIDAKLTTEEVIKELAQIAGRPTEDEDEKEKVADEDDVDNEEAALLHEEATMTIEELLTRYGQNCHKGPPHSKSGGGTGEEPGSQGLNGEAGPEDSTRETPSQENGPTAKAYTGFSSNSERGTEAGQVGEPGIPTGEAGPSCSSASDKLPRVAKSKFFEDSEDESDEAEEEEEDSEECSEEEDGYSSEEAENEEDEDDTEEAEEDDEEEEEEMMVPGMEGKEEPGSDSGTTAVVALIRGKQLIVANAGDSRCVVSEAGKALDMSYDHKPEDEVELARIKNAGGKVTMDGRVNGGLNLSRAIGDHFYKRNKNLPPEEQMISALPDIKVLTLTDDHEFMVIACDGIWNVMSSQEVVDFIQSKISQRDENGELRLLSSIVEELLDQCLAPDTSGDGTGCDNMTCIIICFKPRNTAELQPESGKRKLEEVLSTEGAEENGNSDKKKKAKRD
# UniProt Q13362, whole entry, looked up: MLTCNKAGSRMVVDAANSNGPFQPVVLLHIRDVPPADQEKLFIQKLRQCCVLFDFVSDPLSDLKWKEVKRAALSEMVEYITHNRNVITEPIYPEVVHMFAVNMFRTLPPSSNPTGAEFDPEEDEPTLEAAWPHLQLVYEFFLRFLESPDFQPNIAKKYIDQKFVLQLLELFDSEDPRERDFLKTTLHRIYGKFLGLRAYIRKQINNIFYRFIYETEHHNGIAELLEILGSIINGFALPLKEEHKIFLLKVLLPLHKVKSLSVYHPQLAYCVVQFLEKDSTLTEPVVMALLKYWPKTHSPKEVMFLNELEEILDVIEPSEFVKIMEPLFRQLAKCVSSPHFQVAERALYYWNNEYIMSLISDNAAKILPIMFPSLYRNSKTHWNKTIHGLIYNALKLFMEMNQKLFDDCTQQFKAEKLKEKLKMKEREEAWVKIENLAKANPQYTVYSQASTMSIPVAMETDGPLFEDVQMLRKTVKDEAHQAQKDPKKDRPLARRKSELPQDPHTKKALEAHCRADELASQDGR
# UniProt K7ELL7: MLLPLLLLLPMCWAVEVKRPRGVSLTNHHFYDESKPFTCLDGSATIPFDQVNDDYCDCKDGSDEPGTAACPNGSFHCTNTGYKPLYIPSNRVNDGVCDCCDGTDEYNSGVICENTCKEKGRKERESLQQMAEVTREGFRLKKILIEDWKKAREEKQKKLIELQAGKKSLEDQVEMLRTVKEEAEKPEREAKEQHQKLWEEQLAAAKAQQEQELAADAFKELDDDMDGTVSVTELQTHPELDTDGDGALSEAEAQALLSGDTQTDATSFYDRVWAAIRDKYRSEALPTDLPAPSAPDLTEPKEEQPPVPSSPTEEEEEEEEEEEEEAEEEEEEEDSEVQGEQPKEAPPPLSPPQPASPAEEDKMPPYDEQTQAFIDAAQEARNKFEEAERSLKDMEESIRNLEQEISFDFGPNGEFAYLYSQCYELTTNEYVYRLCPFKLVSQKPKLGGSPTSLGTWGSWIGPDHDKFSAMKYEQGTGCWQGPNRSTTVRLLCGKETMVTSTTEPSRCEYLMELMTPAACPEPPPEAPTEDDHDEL
# UniProt Q99633: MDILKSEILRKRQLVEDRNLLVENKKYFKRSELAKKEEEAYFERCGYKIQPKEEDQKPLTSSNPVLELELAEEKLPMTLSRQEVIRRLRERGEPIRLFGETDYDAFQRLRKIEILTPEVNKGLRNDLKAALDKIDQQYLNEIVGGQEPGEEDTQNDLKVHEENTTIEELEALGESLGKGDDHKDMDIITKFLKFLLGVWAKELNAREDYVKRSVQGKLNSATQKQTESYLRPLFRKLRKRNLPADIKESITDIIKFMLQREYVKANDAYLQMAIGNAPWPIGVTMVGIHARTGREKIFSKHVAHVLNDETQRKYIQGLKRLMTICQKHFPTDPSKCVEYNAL
# UniProt Q15172: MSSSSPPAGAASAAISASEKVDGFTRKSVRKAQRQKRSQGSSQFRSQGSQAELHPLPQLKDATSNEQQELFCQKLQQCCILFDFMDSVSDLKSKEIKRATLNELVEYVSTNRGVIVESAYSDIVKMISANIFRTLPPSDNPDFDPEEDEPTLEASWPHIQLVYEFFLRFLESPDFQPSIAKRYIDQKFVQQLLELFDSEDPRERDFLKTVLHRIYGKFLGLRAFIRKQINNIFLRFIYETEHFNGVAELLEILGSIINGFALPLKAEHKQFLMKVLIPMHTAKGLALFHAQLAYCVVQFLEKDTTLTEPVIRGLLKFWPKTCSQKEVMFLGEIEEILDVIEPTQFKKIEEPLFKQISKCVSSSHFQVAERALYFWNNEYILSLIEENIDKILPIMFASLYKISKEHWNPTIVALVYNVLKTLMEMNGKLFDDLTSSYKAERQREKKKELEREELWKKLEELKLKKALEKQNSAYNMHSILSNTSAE
# UniProt Q13523: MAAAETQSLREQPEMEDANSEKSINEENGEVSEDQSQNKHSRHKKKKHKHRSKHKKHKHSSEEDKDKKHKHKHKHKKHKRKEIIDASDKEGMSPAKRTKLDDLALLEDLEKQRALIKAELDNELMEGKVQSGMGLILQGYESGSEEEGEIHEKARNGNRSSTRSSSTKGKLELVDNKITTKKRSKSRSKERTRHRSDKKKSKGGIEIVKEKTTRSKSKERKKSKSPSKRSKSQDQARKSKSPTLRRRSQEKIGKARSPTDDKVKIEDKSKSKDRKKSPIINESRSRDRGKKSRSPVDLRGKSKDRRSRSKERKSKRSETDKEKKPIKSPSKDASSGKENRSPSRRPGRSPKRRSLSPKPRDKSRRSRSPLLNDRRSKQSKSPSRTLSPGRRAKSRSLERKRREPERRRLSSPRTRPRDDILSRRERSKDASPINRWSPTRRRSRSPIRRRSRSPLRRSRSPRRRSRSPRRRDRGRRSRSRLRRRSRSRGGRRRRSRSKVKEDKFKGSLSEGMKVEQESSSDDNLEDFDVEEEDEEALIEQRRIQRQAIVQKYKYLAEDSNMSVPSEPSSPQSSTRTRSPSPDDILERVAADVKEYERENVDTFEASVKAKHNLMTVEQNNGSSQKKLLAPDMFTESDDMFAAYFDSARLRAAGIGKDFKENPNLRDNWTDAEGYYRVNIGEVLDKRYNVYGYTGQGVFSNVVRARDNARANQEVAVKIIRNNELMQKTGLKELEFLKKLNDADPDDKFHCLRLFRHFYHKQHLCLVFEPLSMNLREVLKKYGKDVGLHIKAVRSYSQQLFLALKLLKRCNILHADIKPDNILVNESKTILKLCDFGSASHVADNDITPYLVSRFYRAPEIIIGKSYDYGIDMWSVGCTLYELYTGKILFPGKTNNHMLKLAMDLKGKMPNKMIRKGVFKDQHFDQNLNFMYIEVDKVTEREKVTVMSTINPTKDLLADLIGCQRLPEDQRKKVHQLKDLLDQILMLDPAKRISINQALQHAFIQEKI
# UniProt P13861, whole entry, looked up: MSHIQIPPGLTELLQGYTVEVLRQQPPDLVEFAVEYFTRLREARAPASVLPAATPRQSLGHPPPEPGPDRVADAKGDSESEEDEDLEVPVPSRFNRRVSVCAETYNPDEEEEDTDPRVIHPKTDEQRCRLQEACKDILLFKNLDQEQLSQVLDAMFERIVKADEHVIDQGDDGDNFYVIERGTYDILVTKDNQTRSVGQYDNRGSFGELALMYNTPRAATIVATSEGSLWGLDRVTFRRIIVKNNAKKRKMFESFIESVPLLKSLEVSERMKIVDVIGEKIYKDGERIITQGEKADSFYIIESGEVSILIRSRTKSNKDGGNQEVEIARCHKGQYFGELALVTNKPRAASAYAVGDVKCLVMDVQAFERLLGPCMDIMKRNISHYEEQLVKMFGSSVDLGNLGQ
# UniProt Q9BSG0: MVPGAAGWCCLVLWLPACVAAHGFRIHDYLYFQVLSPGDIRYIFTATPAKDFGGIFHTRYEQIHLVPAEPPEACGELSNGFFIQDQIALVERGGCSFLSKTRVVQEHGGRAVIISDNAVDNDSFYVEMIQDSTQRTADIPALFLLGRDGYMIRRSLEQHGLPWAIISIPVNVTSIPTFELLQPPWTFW
# UniProt O75569: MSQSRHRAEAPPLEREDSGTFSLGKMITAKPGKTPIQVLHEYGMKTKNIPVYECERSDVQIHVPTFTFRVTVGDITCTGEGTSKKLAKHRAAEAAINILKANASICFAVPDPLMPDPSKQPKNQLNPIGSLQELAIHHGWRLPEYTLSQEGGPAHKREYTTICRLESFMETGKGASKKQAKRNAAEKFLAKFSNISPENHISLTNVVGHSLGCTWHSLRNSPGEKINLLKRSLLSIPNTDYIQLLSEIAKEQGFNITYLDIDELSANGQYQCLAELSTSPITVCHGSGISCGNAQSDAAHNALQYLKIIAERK
# The other results are listed elsewhere or left out.
# Compound: CS(=O)(=O)c1ccc(-c2cnc(N)c(C(=O)Nc3ccccc3)n2)cc1
# Assay: log2 fold change, soluble protein after heating vs DMSO (PISA); higher = thermal stabilisation; K562 cells, 10 uM, 30 min; active = over 0.2 and 3.5 SD of the protein, either way, in both replicates (recomputed)
# Procedure, shortened: (§1)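 For each measurement, 10 μM compound was applied for 30 min to K562 cells at 2×10^6 cells/mL. Aliquots were heated for 3 min across 48°C-58°C, pooled, and extracted in PBS with 0.5% NP-40 at 4°C; the supernatant after 21,000xg for 90 min was soluble protein. This was quantified by TMTpro 16plex LC-MS/MS with channel sums equalised, and thermal stability was reported relative to control samples from duplicates, on a log2 fold-change scale.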
row,Target,log2 fold change
1,PPP1CA (UniProt P62136),inactive: 0.042
2,PPP1R14B (UniProt Q96C90),inactive: 0.016
3,PRKAG1 isoform 3 (UniProt P54619),inactive: -0.01
4,PPP6R3 isoform 5 (UniProt Q5H9R7),inactive: 0.013
5,PRKAR2B (UniProt P31323),inactive: -0.026
6,PRPSAP1 isoform 2 (UniProt Q14558),inactive: 0.028
7,PRKCQ (UniProt Q04759),inactive: 0.021
8,PPM1G (UniProt O15355),inactive: 0.114
9,PRKCB isoform 2 (UniProt P05771),inactive: 0.019
10,PRMT8 (UniProt Q9NR22),inactive: -0.046
11,PPP2R5C isoform 4 (UniProt Q13362),inactive: 0.031
12,PRKCSH (UniProt K7ELL7),inactive: 0.007
13,PRKAB2 (UniProt O43741),inactive: -0.08
14,PRPF18 (UniProt Q99633),inactive: 0.02
15,PRKCA (UniProt P17252),inactive: -0.023
16,PRKDC (UniProt P78527),inactive: 0.005

row,Target,log2 fold change
1,PPP2R5A (UniProt Q15172),inactive: -0.018
2,PPP1R14A (UniProt Q96A00),inactive: 0.078
3,PRKACA (UniProt P17612),inactive: 0.009
4,PRKAA1 isoform 2 (UniProt Q13131),inactive: 0
5,PRMT7 (UniProt Q9NVM4),inactive: 0.063
6,PPP1R35 (UniProt Q8TAP8),inactive: -0.025
7,PRPF4B (UniProt Q13523),inactive: 0.024
8,PRKAR2A (UniProt P13861),inactive: 0.046
9,PRSS2 (UniProt P07478),inactive: 0.085
10,PRKAR1B (UniProt P31321),inactive: 0.137
11,PRADC1 (UniProt Q9BSG0),inactive: 0.052
12,PROCR (UniProt Q9UNN8),inactive: 0.108
13,PRKCD (UniProt Q05655),inactive: 0.05
14,PPP1R12A (UniProt O14974),inactive: -0.054
15,PRKRA (UniProt O75569),inactive: -0.068
16,PPP6R1 (UniProt Q9UPN7),inactive: -0.013

# Compound: C[C@@H](Oc1cc(-c2cnn(C3CCNCC3)c2)cnc1N)c1c(Cl)ccc(F)c1Cl [crizotinib]
# Assay: as above
# Procedure, shortened: as §1
row,Target,log2 fold change
1,PPP1CA (UniProt P62136),inactive: 0.042
2,PPP1R14B (UniProt Q96C90),inactive: -0.162
3,PRKAG1 isoform 3 (UniProt P54619),inactive: -0.114
4,PPP6R3 isoform 5 (UniProt Q5H9R7),inactive: 0.035
5,PRKAR2B (UniProt P31323),inactive: -0.108
6,PRPSAP1 isoform 2 (UniProt Q14558),inactive: 0.024
7,PRKCQ (UniProt Q04759),inactive: -0.238
8,PPM1G (UniProt O15355),inactive: -0.028
9,PRKCB isoform 2 (UniProt P05771),inactive: -0.039
10,PRMT8 (UniProt Q9NR22),inactive: -0.03
11,PPP2R5C isoform 4 (UniProt Q13362),inactive: -0.021
12,PRKCSH (UniProt K7ELL7),inactive: 0.081
13,PRKAB2 (UniProt O43741),inactive: -0.245
14,PRPF18 (UniProt Q99633),inactive: -0.036
15,PRKCA (UniProt P17252),inactive: -0.081
16,PRKDC (UniProt P78527),inactive: 0.018

row,Target,log2 fold change
1,PPP2R5A (UniProt Q15172),inactive: -0.154
2,PPP1R14A (UniProt Q96A00),inactive: 0.011
3,PRKACA (UniProt P17612),inactive: -0.088
4,PRKAA1 isoform 2 (UniProt Q13131),inactive: -0.156
5,PRMT7 (UniProt Q9NVM4),inactive: -0.142
6,PPP1R35 (UniProt Q8TAP8),inactive: -0.036
7,PRPF4B (UniProt Q13523),inactive: -0.006
8,PRKAR2A (UniProt P13861),inactive: -0.038
9,PRSS2 (UniProt P07478),inactive: -0.029
10,PRKAR1B (UniProt P31321),inactive: 0.132
11,PRADC1 (UniProt Q9BSG0),inactive: -0.024
12,PROCR (UniProt Q9UNN8),inactive: 0.205
13,PRKCD (UniProt Q05655),inactive: -0.008
14,PPP1R12A (UniProt O14974),inactive: -0.351
15,PRKRA (UniProt O75569),inactive: -0.089
16,PPP6R1 (UniProt Q9UPN7),inactive: -0.018

# Compound: C[C@@H]1COCCN1C2=NC(=NC(=C2)C3(CC3)S(=O)(=O)C)C4=C5C=CNC5=CC=C4
# Assay: as above
# Procedure, shortened: as §1
row,Target,log2 fold change
1,PPP1CA (UniProt P62136),inactive: 0.013
2,PPP1R14B (UniProt Q96C90),inactive: -0.211
3,PRKAG1 isoform 3 (UniProt P54619),inactive: 0.006
4,PPP6R3 isoform 5 (UniProt Q5H9R7),inactive: 0.092
5,PRKAR2B (UniProt P31323),inactive: -0.067
6,PRPSAP1 isoform 2 (UniProt Q14558),inactive: -0.064
7,PRKCQ (UniProt Q04759),inactive: 0.037
8,PPM1G (UniProt O15355),inactive: 0.045
9,PRKCB isoform 2 (UniProt P05771),inactive: 0.039
10,PRMT8 (UniProt Q9NR22),inactive: -0.043
11,PPP2R5C isoform 4 (UniProt Q13362),inactive: -0.177
12,PRKCSH (UniProt K7ELL7),inactive: 0.005
13,PRKAB2 (UniProt O43741),inactive: 0.021
14,PRPF18 (UniProt Q99633),inactive: -0.072
15,PRKCA (UniProt P17252),inactive: 0.044
16,PRKDC (UniProt P78527),inactive: 0.051

row,Target,log2 fold change
1,PPP2R5A (UniProt Q15172),inactive: 0.014
2,PPP1R14A (UniProt Q96A00),inactive: 0.005
3,PRKACA (UniProt P17612),inactive: 0.046
4,PRKAA1 isoform 2 (UniProt Q13131),inactive: -0.007
5,PRMT7 (UniProt Q9NVM4),inactive: 0.075
6,PPP1R35 (UniProt Q8TAP8),inactive: 0.179
7,PRPF4B (UniProt Q13523),inactive: -0.025
8,PRKAR2A (UniProt P13861),inactive: 0.089
9,PRSS2 (UniProt P07478),inactive: -0.162
10,PRKAR1B (UniProt P31321),inactive: 0.071
11,PRADC1 (UniProt Q9BSG0),inactive: -0.055
12,PROCR (UniProt Q9UNN8),inactive: 0.08
13,PRKCD (UniProt Q05655),inactive: 0.053
14,PPP1R12A (UniProt O14974),inactive: -0.039
15,PRKRA (UniProt O75569),inactive: -0.289
16,PPP6R1 (UniProt Q9UPN7),inactive: 0.125
